Experimental data: patent US11655247B2, “Nanoluc suicide substrates” (PROMEGA CORPORATION, priority 2018, dated 2023)
At least one structure is not confirmed: it was looked up by name or label, or the drawing left a doubt.

System: NanoLuc-HaloTag fusion protein
Test: Direct and two-step labeling with TCO-tetrazine or DBCO-azide pair, fluorescence imaging on SDS/PAGE gel
Type: biochemical
Settings: second step Azide-FAM
Protocol: Similar to the previous example, NanoLuc-HaloTag protein was incubated with compounds to either directly label or label via the two-step process with FAM. Compounds were incubated with the NanoLuc-HaloTag fusion protein and analyzed by florescence imaging on SDS/PAGE gel.

How did the “Two-step labeling with Azide-FAM” value turn out when `O=C(CCC(=O)N1Cc2ccccc2C#Cc2ccccc21)NCCOCCOCCCCCCCl` [JRW-1550, (2-(2-((6-chlorohexyl)oxy)ethoxy)ethyl)succinamide-DBCO] was run?
The value was “two-step labeling occurs”.
